Assay results as given in PubChem BioAssay AID662 (National Center for Advancing Translational Sciences (NCATS), 2007).
“And” between values parts separate entries of the source, which are not always exact repeats. Identical values can stand only once. This is one part of the list. These are further read-outs of the screen, such as a control signal, another cell line or another target. No call is given for them. Compounds called inactive in the main read-out are mostly missing here. Words in brackets tell the shape of the fitted curve; partial curves, single points and poor fits give uncertain potencies.

assay: Cell signaling CRE-BLA (Fsk stim); conditions: CHO CRE-bla reporter (cAMP response element driving beta-lactamase), forskolin EC10, beta-lactamase ratio; measured here: 460 nm blue channel
How it was run: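 Reporter-gene assay: CHO cells with beta-lactamase behind cAMP responsive elements, co-treated with compound and EC10 NKH 477 for 3 hours at 37 degrees Celsius. Activity came from the 460/530 nm CCF4 emission ratio.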

SMILES	AC50
Cc1noc(C)c1COc1cccc(C(=O)OCC(=O)N2CC(=O)Nc3ccccc32)c1	3.16 µM [rising, single point]
CC(C)(Sc1ccc(CCN(CCCCC2CCCCC2)C(=O)NC2CCCCC2)cc1)C(=O)O	25.1 µM [falling, partial curve, poor fit] and 20 µM [falling, partial curve]
COc1ccc(C)c(Cn2c(-c3nonc3N)nc3ccccc32)c1	2.51 µM [rising, full curve]
CCOC(=O)c1cccc(NC(=O)CSc2nnc(C3CCCCC3)n2CC)c1	0.00316 µM [falling, full curve, poor fit]
C=CCn1c(-c2cccs2)nc2nc3ccccc3nc21	10 µM [rising, partial curve]
CN(C)C(=O)CCc1nc(-c2ccc(C(C)(C)C)cc2)no1	12.6 µM [falling, partial curve]
CCC(C)(C)n1nnnc1CN(Cc1cccs1)Cc1cc2cc(OC)ccc2[nH]c1=O	12.6 µM [rising, partial curve]
CCCc1cc(=O)[nH]c(SCC)n1	6.31 µM [rising, partial curve]
Cc1nn(-c2ccccn2)c2nc(-c3cccs3)cc(C(=O)N3CCOCC3)c12	7.94 µM [rising, partial curve]
O=C(c1ccco1)N1CCN(c2nc(C3CC3)nc3sc4c(c23)CCCC4)CC1	25.1 µM [falling, single point]
CN(Cc1ccco1)c1ncnc2ccc(-c3ccccc3C#N)cc12	3.16 µM [rising, partial curve]
Cn1c(C(=O)NCC2CCCO2)cc2c(=O)[nH]c3ccccc3c21 (stereo not given)	15.8 µM [rising, partial curve]
C=C(C)COc1ccc(-c2[nH]ncc2Oc2ccccc2OCC)c(O)c1	12.6 µM [falling, single point]
CCOC(=O)c1c(C)[nH]c(C(C)=O)c1C	12.6 µM [rising, partial curve]
CCNc1ncc2nc(-c3ccccc3)c(=O)n(CCc3ccccc3)c2n1	2 µM [rising, full curve]
Cc1ccc(-c2nnn(CC(=O)NCCc3ccc4c(c3)OCO4)n2)o1	5.01 µM [falling, single point]
Cc1csc(NC(=O)CSc2nc(C)nc3c2c(=O)n(C)c(=O)n3C)n1	2.51 µM [rising, full curve]
COCCNc1nc(-c2ccccc2CN(C)C)nc2ccccc12	12.6 µM [rising, partial curve]
COc1ccc(C(=O)CSc2cc(C)nc3nc(C)nn23)cc1OC	10 µM [rising, partial curve]
COc1ccc(-c2onc(C)c2-c2ccc(C(=O)OC(C)C)o2)c(O)c1	3.16 µM [falling, partial curve]
CCN1CCN(C(=O)c2nn(-c3ccc(OC)cc3)c(=O)c3c2c2ccccc2n3C)CC1	0.02 µM [falling, full curve]
Oc1ccccc1-c1nc(NCC2CCCO2)c2ccccc2n1 (stereo not given)	20 µM [falling, single point]

SMILES	AC50
CCOCCCNC(=O)C(NC(=O)C1CCC(=O)N1)c1ccc(C)cc1 (stereo not given)	0.158 µM [falling, full curve, poor fit]
CC1=C(C(=O)OCc2ccccc2)C(C2CCCCC2)NC(=O)N1CCCCCC(=O)O (stereo not given)	7.94 µM [rising, partial curve]
O=C(Nc1cc(C(F)(F)F)ccc1N1CCOCC1)C1Cc2ccccc2CN1C(=O)c1ccco1 (stereo not given)	2.51 µM [falling, full curve]
COc1cc2c(cc1OC)C(c1ccccc1)N(C(=O)c1ccco1)CC2 (stereo not given)	6.31 µM [rising, partial curve]
O=C(CCC1COc2ccccc2O1)Nc1ccc(Cl)cn1 (stereo not given)	25.1 µM [falling, single point]
COc1ccc(-n2nnc3c(=O)n(CC(=O)NCC4CCCO4)cnc32)cc1 (stereo not given)	25.1 µM [falling, single point]
COCCn1c(=O)c(-c2ccc(F)cc2)nc2cnc(OC)nc21	12.6 µM [rising, partial curve, poor fit]
COc1ccc(C(=O)NC(=O)CSc2nnc(-c3ccco3)n2-c2ccccc2)cc1	6.31 µM [falling, partial curve]
O=S(=O)(c1cccc2ccccc12)N1CCSC1	25.1 µM [falling, single point]
CC(C)C[C@@H](CC(=O)N[C@@H](CCCN)CC(=O)N[C@@H]1CCNC[C@H]1C(=O)N[C@H](CC(=O)N[C@@H](CCC(=O)O)CC(=O)O)CC(C)C)NC(=O)[C@@H]1CCCC[C@H]1N	10 µM [falling, full curve, poor fit]
CCOC(=O)COc1ccc2c3c(c(=O)oc2c1C)CCC3	15.8 µM [rising, single point]
COc1ccc(C2OC(=O)CC2C(=O)N2CCN(c3cc(Cl)ccc3C)CC2)cc1OC (stereo not given)	10 µM [rising, partial curve]
Cc1nn(-c2ccccc2)c2sc(C(=O)c3c(N)n(C)c(=O)n(C)c3=O)cc12	10 µM [rising, partial curve]
COC(=O)C1=CN(CCCN2CCCC2=O)C=C(C(=O)OC)C1c1cccs1	15.8 µM [rising, single point]
COCCN(CC(=O)Nc1ccc(F)cc1)S(=O)(=O)c1ccc(S(=O)(=O)N2CCCC2)cc1	31.6 µM [falling, partial curve, poor fit]
CC(C)c1ccc2c(c1)c(SC(C)(C)C)c(CC(C)(C)C(=O)O)n2Cc1ccc(Cl)cc1	25.1 µM [falling, partial curve]
CCOC(=O)C1CCCN(c2ncnc3c2[nH]c2cccc(OC)c23)C1 (stereo not given)	12.6 µM [rising, single point]
CC1CCCCN1C(=O)CSc1nc2ccsc2c(=O)n1Cc1ccccn1 (stereo not given)	10 µM [rising, single point]
COc1ccc(S(=O)(=O)Nc2cc(OC)c(NC(=O)c3ccco3)cc2OC)cc1	15.8 µM [rising, single point]
Cc1nn(-c2ccccc2)c2[nH]c(=O)c(CNc3ccc4c(c3)OCCO4)cc12	5.01 µM [falling, single point]
CN(C)c1ncc2nc(-c3ccccc3)c(=O)n(CCC#N)c2n1	2.51 µM [rising, full curve]
COc1cc(NS(=O)(=O)c2ccc(NC(=O)C3CCCO3)cc2)nc(OC)n1 (stereo not given)	0.00316 µM [falling, full curve, poor fit]

SMILES	AC50
Cc1ccccc1OCC(=O)Nc1ccccc1N1CCCCC1	2 µM [rising, full curve, poor fit]
COc1ccc(OC)c(C2=NOC(C(=O)Nc3cccc(C(C)=O)c3)C2)c1 (stereo not given)	25.1 µM [rising, single point]
CN(Cc1ccco1)c1ncnc2ccc(-c3ccccc3C(F)(F)F)cc12	10 µM [rising, partial curve]
Cc1nn(-c2nc3ccccc3s2)c(C)c1Oc1ccccc1O	25.1 µM [falling, single point]
Cc1cc(C)n2nc(NCc3cccc(Br)c3)nc2n1	10 µM [rising, partial curve]
Cc1sc2ncnc(-n3cnc4ccccc43)c2c1C	3.98 µM [falling, partial curve]
Cc1onc(-c2c(F)cccc2Cl)c1C(=O)Nc1cccc2nsnc12	25.1 µM [rising, single point]
O=S1(=O)N=C(N2CCN(Cc3ccc4c(c3)OCO4)CC2)c2ccccc21	0.00316 µM [falling, full curve, poor fit]
N#Cc1nc(COc2ccccc2)oc1NCCCn1ccnc1	6.31 µM [falling, partial curve, poor fit]
COc1ccc(Cn2c3nc4ccccc4nc3c3c(=O)n(Cc4ccco4)cnc32)cc1	12.6 µM [rising, single point]
CCCN(CCC)C(=O)C1CCN(c2cc(C)nc3c(-c4ccc(OC)c(OC)c4)c(C)nn23)CC1	12.6 µM [rising, single point]
CC(C)Cc1nc2oc3c(NCc4cccnc4)ncnc3c2c2c1CCC2	5.01 µM [rising, partial curve]
COc1cccc(Nc2ncc3nc(C)c(=O)n(C4CC4)c3n2)c1	2.51 µM [rising, full curve]
COc1cc(OC)c(NC(=O)c2c(-c3ccccc3)noc2C)cc1Cl	3.16 µM [rising, full curve]
COc1ccccc1NC(=O)Cn1nnc(-c2ccccc2NC(=O)c2cccs2)n1	2.51 µM [rising, full curve, poor fit]
Cc1nnc(SCC(=O)Nn2cnnc2)s1	25.1 µM [rising, single point]
Cc1nc(C)c(C(=O)Nc2ccc(C)c(F)c2)o1	5.01 µM [falling, full curve]
CCNc1ncc2nc(C)c(=O)n(-c3ccc(OC)cc3)c2n1	15.8 µM [rising, partial curve]
O=C(Nc1ccccc1C(=O)N1CCCCCC1)c1cccc(S(=O)(=O)N2CCOCC2)c1	3.98 µM [falling, partial curve]
Cn1c(=O)[nH]c(=O)c2c1nc(Br)n2CCCCSc1nc2ccccc2o1	10 µM [rising, partial curve]
Clc1ccc(N2CCN(Cc3c[nH]c4ncccc34)CC2)cc1	12.6 µM [falling, partial curve, poor fit]
